PubChem BioAssay AID1224828 | NIAID | 2016
This is one part, drawn at random, of about 17,000 reagents. Over the whole deposit, 762 (4.5%) are marked active. 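Active calls include both raised and lowered p65 entry, mostly lowered; wells with fewer than 50 cells lack a z-score.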 Raw values are not corrected between plates. Reagent sequences are not shown.

- Screen: 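Knock-downs that increase or decrease LPS-induced p65 nuclear translocation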 (primary screen)
- System: mouse RAW264.7 G9 macrophage reporter cells (GFP-p65, Tnf promoter-mCherry)
- Reagents: siRNA pool against mouse genes, 100 nM
- Time to read-out: 2 days siRNA transfection, then 40 min LPS before fixation
- Conditions: LPS (Salmonella minnesota R595) at 10 ng/ml
- Detection: 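Imaged p65 nuclear translocation ratio, normalised to the plate median, converted to robust z-scores and averaged across two replicates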
- Reading the numbers: p65 translocation robust z-score: higher = more nuclear NF-kappaB p65 after LPS than the plate median; nuclear/cytoplasmic p65 ratio: higher = more nuclear NF-kappaB p65
- Call rule: 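Called active when z exceeds 3.3 or falls under -1.56 (median of Tlr4 controls), giving activity score of at least 50; no calls for control wells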
- Meaning of the calls: active = hit (p65 shift raised or lowered); inactive = no clear change

target gene	p65 translocation robust z-score	nuclear/cytoplasmic p65 ratio, rep 1	nuclear/cytoplasmic p65 ratio, rep 2	low cell count flag	activity call
Col15a1 (collagen, type XV, alpha 1)	-1.05	1.37	1.2	enough cells to score	inactive
Nampt (nicotinamide phosphoribosyltransferase)	-0.63	1.39	1.31	enough cells to score	inactive
Akap8l (A kinase anchor protein 8-like)	-0.51	1.48	1.6	enough cells to score	inactive
Ndufv3 (NADH:ubiquinone oxidoreductase core subunit V3)	-0.38	1.42	1.46	enough cells to score	inactive
Khdc3 (KH domain containing 3, subcortical maternal complex member)		1.54	1.24	fewer than 50 cells per well; well left out of scoring	inactive
Golga5 (golgin A5)	0.5	1.41	1.53	enough cells to score	inactive
Vegfa (vascular endothelial growth factor A)	-0.34	1.42	1.5	enough cells to score	inactive
Rad23b (RAD23 homolog B, nucleotide excision repair protein)	1.09	1.63	1.71	enough cells to score	inactive
Mill2 (MHC I like leukocyte 2)	-0.19	1.43	1.31	enough cells to score	inactive
Ly6d (lymphocyte antigen 6 family member D)	-0.42	1.67	1.47	enough cells to score	inactive
Cstb (cystatin B)	-2.21	1.22	1.05	enough cells to score	active
Cyth1 (cytohesin 1)	-0.44	1.44	1.35	enough cells to score	inactive
H2-T13 (histocompatibility 2, T region locus 13)	2.23	1.73	1.67	enough cells to score	inactive
Or6c211 (olfactory receptor family 6 subfamily C member 211)		1.3	1.35	fewer than 50 cells per well; well left out of scoring	inactive
Meg3 (maternally expressed 3)	0.21	1.76	1.49	enough cells to score	inactive
Cenpm (centromere protein M)		1.19	1.25	fewer than 50 cells per well; well left out of scoring	inactive
Slc16a6	0.28	1.51	1.29	enough cells to score	inactive
Gmppa (GDP-mannose pyrophosphorylase A)	0.29	1.15	1.6	enough cells to score	inactive
Pik3r2 (phosphoinositide-3-kinase regulatory subunit 2)	-0.09	1.67	1.37	enough cells to score	inactive
Mdfic (MyoD family inhibitor domain containing)	1.91	1.79	1.72	enough cells to score	inactive
A930012M17	0.7	1.44	1.66	enough cells to score	inactive
Acap1 (ArfGAP with coiled-coil, ankyrin repeat and PH domains 1)	0	1.63	1.74	enough cells to score	inactive
Or4c1 (olfactory receptor family 4 subfamily C member 1)	-1.64	1.33	1.29	enough cells to score	active
Gpr142 (G protein-coupled receptor 142)	0.73	1.55	1.45	enough cells to score	inactive

Laid out differently: 2 of the entries above
{"target gene":"Slc16a6","p65 translocation robust z-score":0.28,"nuclear/cytoplasmic p65 ratio, rep 1":1.51,"nuclear/cytoplasmic p65 ratio, rep 2":1.29,"low cell count flag":"enough cells to score","activity call":"inactive"}
{"target gene":"Gmppa (GDP-mannose pyrophosphorylase A)","p65 translocation robust z-score":0.29,"nuclear/cytoplasmic p65 ratio, rep 1":1.15,"nuclear/cytoplasmic p65 ratio, rep 2":1.6,"low cell count flag":"enough cells to score","activity call":"inactive"}
